No constants are given. Whether binding was seen depends on the method and setting. A result given as binding can be weak or reduced; the word gives no strength.

B1: EVASIN-11b (peptide)
peptide: EGRAPGPPIPP
modifications: pyroglutamic acid (<E) at position 1 (N-terminus)
B2: EVASIN-9a (peptide)
peptide: EWPRPQIPP
modifications: pyroglutamic acid (<E) at position 1 (N-terminus)
B3: EVASIN-11c (peptide)
peptide: EGRAPHPPIPP
modifications: pyroglutamic acid (<E) at position 1 (N-terminus)
B4: EVASIN-12a (peptide)
peptide: EGWAWPRPQIPP
modifications: pyroglutamic acid (<E) at position 1 (N-terminus)
B5: EVASIN-5a (peptide)
peptide: EKWAP
modifications: pyroglutamic acid (<E) at position 1 (N-terminus)
B6: EVASIN-13a (peptide)
peptide: EGGWPRPGPEIPP
modifications: pyroglutamic acid (<E) at position 1 (N-terminus)

The target of the assay is recombinant neutral endopeptidase. The assay is described as follows: fluorogenic substrate (Abz-RL-EDDnp) inhibition assay, recombinant NEP.
As for B1, the binding result is given as “binds”.
Then B2, with “binds”; and B3, with “binds”.
For B4, the binding result is “binds”.
For B5, the binding entry is on record as “binds”.
Then B6, with “binds”.
